These are yes or no findings as the source states them, for the method shown. Some binding calls cover weakened binding; strength is not graded here. Sequences can lack the tags named with a protein.
Experiments:
[1] = target: human TRAIL-R2:alpaca Fc (hTRAIL-R2:Fc) (human; Lama pacos (alpaca)); test: SPR, Biacore X-100, multi-cycle kinetics, 4E6 monomer as analyte on hTRAIL-R2:Fc
[2] = target: human TRAIL-R2:alpaca Fc (hTRAIL-R2:Fc) (human; Lama pacos (alpaca)); test: ELISA, hTRAIL-R2:Fc coated at 1 or 10 µg/ml, 4E6 monomer at 1 µg/ml, anti-Myc detection
[3] = target: human TRAIL-R2:alpaca Fc (hTRAIL-R2:Fc) (human; Lama pacos (alpaca)); test: ELISA, antigen coated at 1 or 10 µg/ml, 4E6 monomer at 1 µg/ml, detected with anti-Myc 9E10 and anti-mouse IgG HRP, OD450
[4] = target: human TRAIL-R2:alpaca Fc (hTRAIL-R2:Fc) (human; Lama pacos (alpaca)); test: ELISA, hTRAIL-R2:Fc coated at 1 µg/ml, 4E6 monomer at 10 µg/ml, anti-Myc detection
[5] = target: human TRAIL-R2:alpaca Fc (hTRAIL-R2:Fc) (human; Lama pacos (alpaca)); test: ELISA, antigens coated at 1 µg/ml, VHH monomer at 10 µg/ml, detected with anti-Myc 9E10 and anti-mouse IgG HRP, absorbance 450 nm

Measured: binding

B1: 4E6 monomer (anti-hTRAIL-R2 VHH antibody/Myc-Tag, expressed in E. coli) (VHH)
VHH: EVQLVESGGGSVQAGDSLRLSCAASGRTFGSIRVGWFRQTPGKEREFVAAINRNDGTTYYADSVKGRFTISRDNAKNTVYMQMASLKPEDTAVYYCAAGLQYNRSADRVPVGAVYWGQGTQVTVSS
notes: also called 4E6 VHH monomer; 4E6 monomeric protein
binds: all assays above

From US20190169305A1 (TEIKYO HEISEI UNIVERSITY, published 2019)
